Test results from patent EP0233461B2, “4,5,6-Substituted-2-pyrimidinamines” (AMERICAN CYANAMID COMPANY, priority 1986, dated 1987).
Where “and” joins values, the source holds several entries; their conditions need not be identical. Equal entries are not always repeated. At least one read-out could not be matched to a standard name with certainty.

Test system: Obese mice [C57 BI/6J (ob/ob)] and diabetic mice [C57 BI/Ks (db/db)]
Test: Hypoglycemic activity: plasma/blood glucose in obese (ob/ob) and diabetic (db/db) mice fed test compound in chow
Assay type: in vivo
[1] = ob/ob mice, dose 0.1 % (W/W) in chow, day 0 (before first treatment)
[2] = ob/ob mice, dose 0.1 % (W/W) in chow, day 5
[3] = db/db mice, dose 0.1 % (W/W) in chow, day 0 (before first treatment)
[4] = db/db mice, dose 0.1 % (W/W) in chow, day 7
[5] = db/db mice, dose 0.1 % (W/W) in chow, day 14
[6] = db/db mice, dose 0.1 % (W/W) in chow, day 21
[7] = db/db mice, dose 0.1 % (W/W) in chow, day 28
[8] = ob/ob mice, dose 0.01 % (W/W) in chow, day 0 (before first treatment)
[9] = ob/ob mice, dose 0.01 % (W/W) in chow, day 7
[10] = ob/ob mice, dose 0.01 % (W/W) in chow, day 14
[11] = ob/ob mice, dose 0.01 % (W/W) in chow, day 21
[12] = ob/ob mice, dose 0.01 % (W/W) in chow, day 28
[13] = ob/ob mice, dose 0.1 % (W/W) in chow, day 7
[14] = ob/ob mice, dose 0.1 % (W/W) in chow, day 14
[15] = ob/ob mice, dose 0.1 % (W/W) in chow, day 21
[16] = ob/ob mice, dose 0.1 % (W/W) in chow, day 28

CN1CCN(c2ccc(Nc3nccc(-c4cccs4)n3)cc2)CC1 [N-[4-(4-Methyl-1-piperazinyl)phenyl] -4-(2-thienyl)-2-pyrimidinamine]
Blood Glucose Levels in mg/100ml [1]: 203 mg/100ml
Blood Glucose Levels in mg/100ml [2]: 188 mg/100ml

CN1CCN(c2ccc(Nc3nccc(-c4ccncc4)n3)cc2)CC1 [N-[4-(4-Methyl-1-piperazinyl)phenyl] -4-(4-pyridinyl)-2-pyri] [N-[4-(4-Methyl-1-piperazinyl)phenyl] -4-(4-pyridinyl)-2-pyrimidinamine]
Blood Glucose Levels in mg/100ml [3]: 406 mg/100ml
Blood Glucose Levels in mg/100ml [4]: 273 mg/100ml
Blood Glucose Levels in mg/100ml [5]: 140 mg/100ml
Blood Glucose Levels in mg/100ml [6]: 178 mg/100ml
Blood Glucose Levels in mg/100ml [7]: 279 mg/100ml
Blood Glucose Levels in mg/100ml [8]: 210 mg/100ml
Blood Glucose Levels in mg/100ml [9]: 130 mg/100ml
Blood Glucose Levels in mg/100ml [10]: 192 mg/100ml
Blood Glucose Levels in mg/100ml [11]: 178 mg/100ml
Blood Glucose Levels in mg/100ml [12]: 147 mg/100ml
Blood Glucose Levels in mg/100ml (ob/ob mice, dose 0.025 % (W/W) in chow, day 0 (before first treatment)): 231 mg/100ml and 210 mg/100ml
Blood Glucose Levels in mg/100ml (ob/ob mice, dose 0.025 % (W/W) in chow, day 7): 154 mg/100ml and 157 mg/100ml
Blood Glucose Levels in mg/100ml (ob/ob mice, dose 0.025 % (W/W) in chow, day 14): 134 mg/100ml and 200 mg/100ml
Blood Glucose Levels in mg/100ml (ob/ob mice, dose 0.025 % (W/W) in chow, day 21): 152 mg/100ml
Blood Glucose Levels in mg/100ml (ob/ob mice, dose 0.025 % (W/W) in chow, day 28): 202 mg/100ml
Blood Glucose Levels in mg/100ml [1]: 215 mg/100ml and 223 mg/100ml and 204 mg/100ml and 221 mg/100ml and 233 mg/100ml and 226 mg/100ml
Blood Glucose Levels in mg/100ml [2]: 138 mg/100ml and 125 mg/100ml and 131 mg/100ml and 117 mg/100ml
Blood Glucose Levels in mg/100ml [13]: 171 mg/100ml and 118 mg/100ml
Blood Glucose Levels in mg/100ml [14]: 137 mg/100ml and 124 mg/100ml
Blood Glucose Levels in mg/100ml [15]: 178 mg/100ml
Blood Glucose Levels in mg/100ml [16]: 161 mg/100ml

CCN(CC)CCOc1ccc(Nc2nccc(-c3cccs3)n2)cc1 [N-[4-[2-(Diethylamino) ethoxy]phenyl]-4-(2-thienyl)-2-pyrimi] [N-[4-[2-(Diethylamino)ethoxy]phenyl]-4-(2-thienyl)-2-pyrimidinamine]
Blood Glucose Levels in mg/100ml [1]: 228 mg/100ml and 215 mg/100ml
Blood Glucose Levels in mg/100ml [2]: 154 mg/100ml and 137 mg/100ml

CN(C)CCOc1ccc(Nc2nccc(-c3ccncc3)n2)cc1 [N-[4-[2-(Dimethylam-ino)ethoxy]phenyl]-4-(4-pyridinyl)-2-pyr] [listing 1 of 2 here]
Blood Glucose Levels in mg/100ml [1]: 218 mg/100ml
Blood Glucose Levels in mg/100ml [2]: 151 mg/100ml
Blood Glucose Levels in mg/100ml [13]: 167 mg/100ml

CN(C)CCOc1ccc(Nc2nccc(-c3ccncc3)n2)cc1 [N-[4-[2-(Dimethylam-ino)ethoxy]phenyl]-4-(4-pyridinyl)-2-pyr] [listing 2 of 2 here]
Blood Glucose Levels in mg/100ml (db/db mice, dose 0.01 % (W/W) in chow, day 0 (before first treatment)): 368 mg/100ml
Blood Glucose Levels in mg/100ml (db/db mice, dose 0.01 % (W/W) in chow, day 7): 393 mg/100ml
Blood Glucose Levels in mg/100ml (db/db mice, dose 0.01 % (W/W) in chow, day 14): 321 mg/100ml
Blood Glucose Levels in mg/100ml (db/db mice, dose 0.01 % (W/W) in chow, day 21): 494 mg/100ml
Blood Glucose Levels in mg/100ml (db/db mice, dose 0.01 % (W/W) in chow, day 28): 336 mg/100ml
Blood Glucose Levels in mg/100ml (db/db mice, dose 0.05 % (W/W) in chow, day 0 (before first treatment)): 400 mg/100ml
Blood Glucose Levels in mg/100ml (db/db mice, dose 0.05 % (W/W) in chow, day 7): 277 mg/100ml
Blood Glucose Levels in mg/100ml (db/db mice, dose 0.05 % (W/W) in chow, day 14): 404 mg/100ml
Blood Glucose Levels in mg/100ml (db/db mice, dose 0.05 % (W/W) in chow, day 21): 329 mg/100ml
Blood Glucose Levels in mg/100ml (db/db mice, dose 0.05 % (W/W) in chow, day 28): 250 mg/100ml
Blood Glucose Levels in mg/100ml [3]: 369 mg/100ml
Blood Glucose Levels in mg/100ml [4]: 410 mg/100ml
Blood Glucose Levels in mg/100ml [5]: 403 mg/100ml
Blood Glucose Levels in mg/100ml [6]: 328 mg/100ml
Blood Glucose Levels in mg/100ml [7]: 222 mg/100ml
Blood Glucose Levels in mg/100ml [8]: 236 mg/100ml
Blood Glucose Levels in mg/100ml [9]: 163 mg/100ml
Blood Glucose Levels in mg/100ml [10]: 252 mg/100ml
Blood Glucose Levels in mg/100ml [11]: 175 mg/100ml
Blood Glucose Levels in mg/100ml [12]: 177 mg/100ml
Blood Glucose Levels in mg/100ml (ob/ob mice, dose 0.05 % (W/W) in chow, day 0 (before first treatment)): 230 mg/100ml
Blood Glucose Levels in mg/100ml (ob/ob mice, dose 0.05 % (W/W) in chow, day 7): 158 mg/100ml
Blood Glucose Levels in mg/100ml (ob/ob mice, dose 0.05 % (W/W) in chow, day 14): 198 mg/100ml
Blood Glucose Levels in mg/100ml (ob/ob mice, dose 0.05 % (W/W) in chow, day 21): 196 mg/100ml
Blood Glucose Levels in mg/100ml (ob/ob mice, dose 0.05 % (W/W) in chow, day 28): 163 mg/100ml
Blood Glucose Levels in mg/100ml [1]: 228 mg/100ml and 225 mg/100ml and 232 mg/100ml
Blood Glucose Levels in mg/100ml [2]: 144 mg/100ml and 134 mg/100ml
Blood Glucose Levels in mg/100ml [13]: 148 mg/100ml
Blood Glucose Levels in mg/100ml [14]: 128 mg/100ml
Blood Glucose Levels in mg/100ml [15]: 155 mg/100ml
Blood Glucose Levels in mg/100ml [16]: 140 mg/100ml

CN(C)CCCOc1ccc(Nc2nccc(-c3cccnc3)n2)cc1 [N-[4-[3-(Dimethylamino)propoxy]phenyl]-4-(3-pyridinyl) -2-pyrimidinamine]
Blood Glucose Levels in mg/100ml [1]: 215 mg/100ml
Blood Glucose Levels in mg/100ml [2]: 234 mg/100ml
